The values that follow come from patent US20200055937A1.

Chains of the proteins cited; added tags and fusions are not shown. Lines headed by an entry give the natural chain unless they say otherwise; changes in a name come on top.
UniProt P16410: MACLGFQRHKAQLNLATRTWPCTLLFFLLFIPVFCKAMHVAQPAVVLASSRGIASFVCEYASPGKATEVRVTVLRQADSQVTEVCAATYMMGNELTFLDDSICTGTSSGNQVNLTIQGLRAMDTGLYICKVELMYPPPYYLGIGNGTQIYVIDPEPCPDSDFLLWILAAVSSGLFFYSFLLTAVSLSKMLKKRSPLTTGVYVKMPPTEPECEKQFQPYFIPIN

No constants are given. Whether binding was seen depends on the method and setting. Some entries that bind do so weakly or less than the wild type.

One experiment deals with human CTLA-4 (human) (UniProt P16410). The experiment in a line: summary of Examples 1-5.
Experiment [1] concerns the target T1, cyno Macaque CTLA-4 (cyno Macaque) (UniProt G7PL88).
T1 sequence: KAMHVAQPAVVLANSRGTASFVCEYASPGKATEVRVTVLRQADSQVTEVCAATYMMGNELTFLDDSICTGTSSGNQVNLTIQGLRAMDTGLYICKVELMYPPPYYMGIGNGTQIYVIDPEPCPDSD
The experiment in a line: summary of Examples 1-5.

B1: Humanized Ab 14 (VH6 + VL3) (antibody, human IgG1, kappa, V domains shown)
VH: QVQLVQSGAEVKKPGASVKVSCKASGYKFTDHFINWVKQAPGQGLEWIGDINPNNGGTNSNQKFEGKATLTVDKSISTAYMELRRLRSDDTAVYYCARLRREYFYAMDYWGQGTLVTVSS
VL: DIVMTQSPLSLPVTPGEPASISCRSSKSLLHSNGITYLYWYLQKPGQSPQLLIYQMSNLASGVPDRFSSSGSGTDFTLKISRVEAEDVGVYYCAQNLELPLTFGGGTKLEIKR
For the molecule B1, the binding result (in the experiment with human CTLA-4 (human); in experiment [1]) was “binds” throughout.

B2: MAb A4 (13F10D7) (antibody, V domains shown)
VH: EVQLRQSGPELVKPGTSVKISCKASGYKFTDHFINWVKQNHGKSLEWIGDINPNNGGTNSNQKFEGKATLTVDKSSSTAYMELRSLTSEDSAVYYCARLRREYFYAMDYWGQGTSVTVSS
VL: DIVMTQAAFSNPVTLGTSASISCRSSKSLLHSNGITYLYWYLQKPGQSPQLLIYQMSNLASGVPDRFSSSGSGTDFTLRISRVEAEDVGVYYCAQNLELPLTFGAGTKLELK
For B2, the binding entry in experiment [1] is recorded as “binds”.
